Experimental data taken from paper PMC11746154.
Construct, isoform or probe ends are uncertain for at least one entry. At least one verdict rests on a figure or table, not on a statement of the authors.

Tested on: Spo11 + Rec102 + Rec104 + Ski8
Test: EMSA
Conditions: 5 mM MgCl2, quantification only in figure/source data; 5' phosphate (32P, T4 PNK); EMSA: 25 mM Tris-HCl pH 7.5, 7.5% glycerol, 100 mM NaCl, 2 mM DTT, 5 mM MgCl2, 1 mg/ml BSA, 0.1 nM DNA, 30 min 30 C; recombinant protein; label: 5'-32P; folded or branched DNA

**Q.** Does “TAGCAATGTAATCGTCTATGACGTTAACGTCATAGACGATTACATTGC [hairpin DNA, 32P-labeled (EMSA)]” bind?
**A.** binds
